The values below come from PMC11727142.

Sequences of proteins named here, by UniProt entry; tags and fusion partners are left off. A change or cut given only in a name is not applied to a line headed by its entry.
UniProt P06733: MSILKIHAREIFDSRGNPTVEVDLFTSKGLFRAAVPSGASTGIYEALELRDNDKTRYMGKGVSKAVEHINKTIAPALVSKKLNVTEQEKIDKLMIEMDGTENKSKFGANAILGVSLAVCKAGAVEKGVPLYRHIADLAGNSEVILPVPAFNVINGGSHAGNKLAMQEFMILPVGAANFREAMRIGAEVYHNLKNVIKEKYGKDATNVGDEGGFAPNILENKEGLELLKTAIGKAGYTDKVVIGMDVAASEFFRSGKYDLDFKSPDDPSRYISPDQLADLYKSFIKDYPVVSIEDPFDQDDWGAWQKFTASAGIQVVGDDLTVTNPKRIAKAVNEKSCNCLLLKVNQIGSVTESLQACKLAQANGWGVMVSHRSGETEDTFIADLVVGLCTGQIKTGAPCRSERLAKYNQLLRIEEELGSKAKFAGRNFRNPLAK
UniProt P62993: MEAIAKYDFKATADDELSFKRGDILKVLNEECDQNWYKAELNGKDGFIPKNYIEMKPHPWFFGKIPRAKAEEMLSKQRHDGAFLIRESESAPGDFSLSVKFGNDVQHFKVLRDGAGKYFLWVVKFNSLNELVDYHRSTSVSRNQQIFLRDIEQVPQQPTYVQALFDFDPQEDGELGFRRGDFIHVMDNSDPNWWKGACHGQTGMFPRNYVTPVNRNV

Assay [1] has as its target T1, Recombinant human ECM1 tagged with Flag (extracellular matrix protein 1) (human) (UniProt Q16610).
T1 sequence: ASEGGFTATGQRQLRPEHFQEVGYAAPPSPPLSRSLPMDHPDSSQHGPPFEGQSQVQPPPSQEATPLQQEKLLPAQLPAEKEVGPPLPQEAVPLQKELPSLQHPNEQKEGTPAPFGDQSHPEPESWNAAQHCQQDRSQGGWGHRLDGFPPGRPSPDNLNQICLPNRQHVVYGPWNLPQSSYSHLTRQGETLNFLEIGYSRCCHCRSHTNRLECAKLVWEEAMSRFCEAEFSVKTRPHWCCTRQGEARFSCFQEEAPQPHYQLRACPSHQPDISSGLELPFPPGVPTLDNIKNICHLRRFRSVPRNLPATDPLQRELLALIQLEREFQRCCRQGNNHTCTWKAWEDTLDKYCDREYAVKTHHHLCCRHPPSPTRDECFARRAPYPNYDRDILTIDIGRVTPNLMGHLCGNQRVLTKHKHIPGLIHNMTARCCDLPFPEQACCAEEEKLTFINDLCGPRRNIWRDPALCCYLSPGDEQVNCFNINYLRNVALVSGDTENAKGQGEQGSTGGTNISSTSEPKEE
Put plainly: co-IP; C4-2B cells treated with ECM1-Flag protein (200 ng/mL); lysates; antibodies with protein A/G magnetic beads overnight at 4 °C or anti-Flag beads; western blot of endogenous partners; only the target purified. For orientation: A western blot detects proteins with antibodies after separation by electrophoresis.

Assay [2] concerns the target Enolase 1 (ENO1), endogenous in C4-2B cells (human (endogenous in C4-2B)) (UniProt P06733). In words: co-IP; endogenous ENO1 with GRB2 and SOS1 in C4-2B lysates, in the presence or absence of ECM1 (200 ng/mL).
For assay [3], the target named is HA-ENO1-Y189E (human) (UniProt P06733). In words: co-IP; C4-2B cells expressing ENO1 mutants (Y189F, Y189E), in the presence of ECM1 (200 ng/mL); ENO1 against GRB2 and SOS1.

These are yes or no findings as the source states them, for the method shown. In cells and extracts the contact can be indirect. Some results given as binding are weak or reduced against the parent protein; the word gives no strength. For part of these data: Where a sequence is shown, tags or fusion partners need not be part of it.

With “Enolase 1 (ENO1), endogenous in C4-2B cells (from UniProt P06733 1-434) (receptor)”, the binding result in assay [1] is recorded as “binds”.

For “Growth factor receptor-bound protein 2 (GRB2), endogenous in C4-2B cells (from UniProt P62993 1-217)”, the binding entry in assay [2] and in assay [3] was “binds” throughout.
